Laboratory results from patent US20210029993A1, “SPATIAL INHIBITORS, DETERRENTS AND REPELLENTS FOR MOSQUITOES AND MIDGES” (BEDOUKIAN RESEARCH, INC., priority 2005, published 2021).
Some entries share one result that the patent states for a list of compounds. For at least one compound, name, drawing or mass did not settle the structure. Some compounds share one range, which may span the group rather than tell each member.

Test system: mosquitoes
Experiment: Spatial inhibition of mosquitoes, outdoor Mosquito Magnet Liberty Plus trap catch
Type: in vivo
Details: FIG. 5; for percent mosquitoes caught relative to the control (relative catch): two grams of test compound on absorbent material in CO2 and r-octenol stream of trap, 2-5 days; for inhibition of the mosquitoes ability to sense the target trap: two grams of test compound on absorbent material in trap stream, from relative catch
Procedure: Two grams of test compound was absorbed onto pieces of absorbent material. These pieces of absorbent material (fragrance release material from Rhopore Inc.) containing absorbed test compound were then placed in a stream of CO2 and r-octenol being released from an American Biophysics Mosquito Magnet Liberty Plus mosquito trap designed to attract mosquitoes. The test were rotated over a period of 2-5 days in such a manner that both control (trap without test compound) and test compound were tested an equal number of times in each trap employed. The number of mosquitoes caught in the traps with test compounds was compared to the number of mosquitoes caught in the trap with no test compound material present. […] Thus, a lowered percentage is indicative of the increasing ability of the test compounds to inhibit the ability of the mosquitoes sense the target. […] In Table 3, weight percent (wt %) refers to the weight of the deterring/repelling/inhibiting compound, or combination of compounds, in the composition used in the tests. In the “Percent Caught Relative to Control” column in Table 3, a lower percentage is indicative of the increasing ability of the test compounds to inhibit the ability of the mosquitoes sense the target. The weight ratio of the compounds in the combination of compounds is given in parentheses in the “Compound(s)” column of Table 3.

Row | Molecule | percent mosquitoes caught relative to the control (relative catch) | inhibition of the mosquitoes ability to sense the target trap [%]
1 | C=C(C)[C@H]1CC=C(C)C(=O)C1 [d-Carvone] | 6-8% | ≥ 90
2 | CC(C)=CCCC(C)=CC=O [Citral] | 6-8% | ≥ 90
3 | l-Carvone | 6-8% | ≥ 90
4 | CC(C)=CCCC(C)CC=O (centres unmarked) [Citronellal] | 6-8% | ≥ 90
